No constants are given. Whether binding was seen depends on the method and setting. Binding seen in cells or lysates may run through a third protein. For some of these results: A result given as binding can be weak or reduced; the word gives no strength. Tags and fused reporters may be left off the sequences shown.
T1: V5-tagged SHFV nsp3 (simian hemorrhagic fever virus (SHFV)) (UniProt Q68772)
T1 sequence: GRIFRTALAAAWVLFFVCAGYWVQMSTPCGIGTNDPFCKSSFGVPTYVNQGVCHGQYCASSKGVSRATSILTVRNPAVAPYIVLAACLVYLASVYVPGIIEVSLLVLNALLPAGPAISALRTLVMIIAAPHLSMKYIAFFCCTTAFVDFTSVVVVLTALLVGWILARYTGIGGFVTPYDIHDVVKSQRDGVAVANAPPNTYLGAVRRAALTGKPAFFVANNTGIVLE

T2: V5-tagged SHFV nsp2 (wild type) (simian hemorrhagic fever virus (SHFV)) (UniProt Q68772)
T2 sequence: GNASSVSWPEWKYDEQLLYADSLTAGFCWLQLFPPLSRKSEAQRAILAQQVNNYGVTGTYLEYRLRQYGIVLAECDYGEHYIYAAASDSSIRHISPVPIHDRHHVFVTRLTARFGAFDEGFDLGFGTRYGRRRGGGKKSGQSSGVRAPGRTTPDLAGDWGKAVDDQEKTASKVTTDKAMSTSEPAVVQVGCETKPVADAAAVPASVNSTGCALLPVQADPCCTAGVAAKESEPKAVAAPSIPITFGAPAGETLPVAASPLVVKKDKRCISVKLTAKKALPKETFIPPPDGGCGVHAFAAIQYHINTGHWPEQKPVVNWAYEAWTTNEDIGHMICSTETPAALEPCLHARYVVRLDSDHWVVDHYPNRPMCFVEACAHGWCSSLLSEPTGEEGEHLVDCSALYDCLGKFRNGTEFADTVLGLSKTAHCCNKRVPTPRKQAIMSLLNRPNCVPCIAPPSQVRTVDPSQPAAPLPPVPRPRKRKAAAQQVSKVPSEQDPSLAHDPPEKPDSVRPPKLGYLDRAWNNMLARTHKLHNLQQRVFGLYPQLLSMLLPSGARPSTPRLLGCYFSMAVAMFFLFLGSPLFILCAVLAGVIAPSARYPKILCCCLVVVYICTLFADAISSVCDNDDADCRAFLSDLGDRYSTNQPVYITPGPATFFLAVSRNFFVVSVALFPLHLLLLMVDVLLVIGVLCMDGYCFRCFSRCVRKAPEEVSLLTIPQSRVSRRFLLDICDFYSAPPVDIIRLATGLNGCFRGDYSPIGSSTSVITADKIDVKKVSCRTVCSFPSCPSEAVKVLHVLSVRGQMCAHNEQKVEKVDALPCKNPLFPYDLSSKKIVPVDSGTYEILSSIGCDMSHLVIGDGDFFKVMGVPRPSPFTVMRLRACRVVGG

B1: V5-tagged SHFV nsp2 (wild type) (protein, UniProt Q68772 351-1236)
chain: T2 sequence
B2: V5-tagged SHFV nsp3 (protein, UniProt Q68772 1237-1463)
chain: T1 sequence

Assays:
[1] = target: T1, V5-tagged SHFV nsp3 (simian hemorrhagic fever virus (SHFV)); experiment: co-IP; whole-cell lysates of MA104 cells (transfected, or SHFV-infected and transfected) in IP lysis buffer; V5-tagged viral protein precipitated with V5-Trap magnetic agarose, 4°C, 2 h; Western blot with anti-G3BP1 and anti-V5
[2] = target: T2, V5-tagged SHFV nsp2 (wild type) (simian hemorrhagic fever virus (SHFV)); experiment: as above
[3] = target: Ras GTPase-activating protein binding protein 1 (G3BP1) (African green monkey (endogenous in MA104)); experiment: co-IP; whole-cell lysates of MA104 cells (SHFV-infected, transfected, or transfected and infected) in IP lysis buffer; endogenous G3BP1 precipitated with rabbit anti-G3BP1 antibody and Protein A magnetic beads, 4°C; rabbit IgG control; Western blot with anti-nsp1 or anti-V5 antibodies

Row | Molecule | binding [1] | binding [2] | binding [3]
1 | Ras GTPase-activating protein binding protein 1 (G3BP1) | no binding | binds | 
2 | B1 |  |  | binds
3 | B2 |  |  | no binding

Reference: publication PMC12282152
